Measurements taken from publication PMC7761743, “Structure and Characterization of Phosphoglucomutase 5 from Atlantic and Baltic Herring—An Inactive Enzyme with Intact Substrate Binding” (Biomolecules, 2020).
No constants are given. Whether binding was seen depends on the method and setting. Tags and fused reporters may be left off the sequences shown.

Tests used:
[1] = molecular target: Atlantic herring phosphoglucomutase 5 (Atlantic variant with Ala330) (Clupea harengus harengus (Atlantic herring)); assay: SEC; preparative size exclusion chromatography during purification: HiLoad 16/60 Superdex 200 and Superdex 75, 25 mM Tris-HCl, 150 mM NaCl, pH 8.0; both purified
[2] = molecular target: Baltic herring phosphoglucomutase 5 (Baltic variant with Val330) (Clupea harengus membras (Baltic herring)); assay: as above

Row | binding [1] | binding [2] | Binder
1 | no binding |  | Atlantic herring phosphoglucomutase 5 (Atlantic variant with Ala330) (protein, UniProt A0A6P3VN15 1-567) METNPIPVVTVQTTPFDDQKPGTNGLRKKTTVFESKKNYLQNYIQSVLSSIDLRDRQGCTMVVGSDGRYFSRTAIEVIVQMAAANGIGRLVIGHNGILSTPAVSCIIRKIKAIGGIILTASRNPGGPNGDFGIKFNVANGGPAPDTVIDKIHQVSRTLEEYAICPDMRIDLSRLGRQDFDLENKFKPFRVEIVDSVEVYLNLLRGIFDFNAIKGLLTGPDQLKMRVDAMSGVMGPYVRRILCDELGAPANSAVNCVPLEDFGGHYPDPNLTYATGLVDAMKGGEFGFGAAFDADGDRCMILGQNAFFVNPSDSLAVVAANLSCIPYFRQAGVRGFARSMPTSTAIDRVAKAMKVAVYETPAGWRFFGNLMDSGRCSFCGEESFGMGSDHIREKDGLWTVLVWLSIMAARKQGVEDIVRDHWTKLGRNYFCRFDYEAIDPRAAFYLMKDLEAVISDKAFCSQKFAVGNSVYSVEKADNFEYIDPVDGTVARNQGLRIIFSESSRLIFRLSGTGVGVGATIRIYAESFERDPERHNREPQVVLGPLIAIALKISDIHERTGRRGPTVIT
2 |  | no binding | Baltic herring phosphoglucomutase 5 (Baltic variant with Val330) (protein, UniProt A0A6P3VN15 1-567) METNPIPVVTVQTTPFDDQKPGTNGLRKKTTVFESKKNYLQNYIQSVLSSIDLRDRQGCTMVVGSDGRYFSRTAIEVIVQMAAANGIGRLVIGHNGILSTPAVSCIIRKIKAIGGIILTASRNPGGPNGDFGIKFNVANGGPAPDTVIDKIHQVSRTLEEYAICPDMRIDLSRLGRQDFDLENKFKPFRVEIVDSVEVYLNLLRGIFDFNAIKGLLTGPDQLKMRVDAMSGVMGPYVRRILCDELGAPANSAVNCVPLEDFGGHYPDPNLTYATGLVDAMKGGEFGFGAAFDADGDRCMILGQNAFFVNPSDSLAVVAANLSCIPYFRQVGVRGFARSMPTSTAIDRVAKAMKVAVYETPAGWRFFGNLMDSGRCSFCGEESFGMGSDHIREKDGLWTVLVWLSIMAARKQGVEDIVRDHWTKLGRNYFCRFDYEAIDPRAAFYLMKDLEAVISDKAFCSQKFAVGNSVYSVEKADNFEYIDPVDGTVARNQGLRIIFSESSRLIFRLSGTGVGVGATIRIYAESFERDPERHNREPQVVLGPLIAIALKISDIHERTGRRGPTVIT
